These are yes or no findings as the source states them, for the method shown. Binding seen in cells or lysates may run through a third protein. Some results given as binding are weak or reduced against the parent protein; the word gives no strength.

The chains behind the UniProt entries cited, without tags or fusion partners. Residues count along the entry.
UniProt Q4LDE5, residues 2261-3571: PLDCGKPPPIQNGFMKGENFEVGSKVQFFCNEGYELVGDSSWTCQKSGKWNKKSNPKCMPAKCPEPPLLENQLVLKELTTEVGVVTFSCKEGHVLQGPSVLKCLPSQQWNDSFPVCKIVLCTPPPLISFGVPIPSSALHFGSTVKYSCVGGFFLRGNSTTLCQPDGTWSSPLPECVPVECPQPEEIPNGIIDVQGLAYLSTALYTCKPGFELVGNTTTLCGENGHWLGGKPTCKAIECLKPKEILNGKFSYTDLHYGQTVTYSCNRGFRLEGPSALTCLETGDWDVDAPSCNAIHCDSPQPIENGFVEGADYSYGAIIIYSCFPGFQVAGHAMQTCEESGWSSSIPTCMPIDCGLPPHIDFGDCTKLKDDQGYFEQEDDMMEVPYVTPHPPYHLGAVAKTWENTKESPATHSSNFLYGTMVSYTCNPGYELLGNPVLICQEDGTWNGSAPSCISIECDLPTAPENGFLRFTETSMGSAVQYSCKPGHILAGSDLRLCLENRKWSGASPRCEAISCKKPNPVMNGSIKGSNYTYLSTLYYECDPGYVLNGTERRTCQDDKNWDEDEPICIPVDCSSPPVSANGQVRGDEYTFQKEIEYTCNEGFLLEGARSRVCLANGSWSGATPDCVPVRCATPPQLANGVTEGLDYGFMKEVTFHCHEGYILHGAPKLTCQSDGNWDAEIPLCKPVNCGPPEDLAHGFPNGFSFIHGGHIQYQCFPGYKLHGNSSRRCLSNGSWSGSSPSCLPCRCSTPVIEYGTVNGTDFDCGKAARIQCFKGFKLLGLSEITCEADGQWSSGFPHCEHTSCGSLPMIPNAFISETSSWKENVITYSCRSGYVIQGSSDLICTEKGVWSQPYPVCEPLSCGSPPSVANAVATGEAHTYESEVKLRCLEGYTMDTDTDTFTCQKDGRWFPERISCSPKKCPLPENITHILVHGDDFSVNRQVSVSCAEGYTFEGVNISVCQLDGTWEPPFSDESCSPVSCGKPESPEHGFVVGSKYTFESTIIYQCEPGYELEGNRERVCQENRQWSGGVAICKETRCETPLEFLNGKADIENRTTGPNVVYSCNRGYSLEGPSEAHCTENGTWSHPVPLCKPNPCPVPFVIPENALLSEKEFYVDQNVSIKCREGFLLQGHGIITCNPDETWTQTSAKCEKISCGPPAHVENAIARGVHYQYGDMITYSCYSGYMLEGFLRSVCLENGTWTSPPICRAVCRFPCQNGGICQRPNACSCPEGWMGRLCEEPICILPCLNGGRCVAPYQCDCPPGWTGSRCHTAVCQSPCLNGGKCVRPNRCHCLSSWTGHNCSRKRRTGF
UniProt P35590, residues 21-1138: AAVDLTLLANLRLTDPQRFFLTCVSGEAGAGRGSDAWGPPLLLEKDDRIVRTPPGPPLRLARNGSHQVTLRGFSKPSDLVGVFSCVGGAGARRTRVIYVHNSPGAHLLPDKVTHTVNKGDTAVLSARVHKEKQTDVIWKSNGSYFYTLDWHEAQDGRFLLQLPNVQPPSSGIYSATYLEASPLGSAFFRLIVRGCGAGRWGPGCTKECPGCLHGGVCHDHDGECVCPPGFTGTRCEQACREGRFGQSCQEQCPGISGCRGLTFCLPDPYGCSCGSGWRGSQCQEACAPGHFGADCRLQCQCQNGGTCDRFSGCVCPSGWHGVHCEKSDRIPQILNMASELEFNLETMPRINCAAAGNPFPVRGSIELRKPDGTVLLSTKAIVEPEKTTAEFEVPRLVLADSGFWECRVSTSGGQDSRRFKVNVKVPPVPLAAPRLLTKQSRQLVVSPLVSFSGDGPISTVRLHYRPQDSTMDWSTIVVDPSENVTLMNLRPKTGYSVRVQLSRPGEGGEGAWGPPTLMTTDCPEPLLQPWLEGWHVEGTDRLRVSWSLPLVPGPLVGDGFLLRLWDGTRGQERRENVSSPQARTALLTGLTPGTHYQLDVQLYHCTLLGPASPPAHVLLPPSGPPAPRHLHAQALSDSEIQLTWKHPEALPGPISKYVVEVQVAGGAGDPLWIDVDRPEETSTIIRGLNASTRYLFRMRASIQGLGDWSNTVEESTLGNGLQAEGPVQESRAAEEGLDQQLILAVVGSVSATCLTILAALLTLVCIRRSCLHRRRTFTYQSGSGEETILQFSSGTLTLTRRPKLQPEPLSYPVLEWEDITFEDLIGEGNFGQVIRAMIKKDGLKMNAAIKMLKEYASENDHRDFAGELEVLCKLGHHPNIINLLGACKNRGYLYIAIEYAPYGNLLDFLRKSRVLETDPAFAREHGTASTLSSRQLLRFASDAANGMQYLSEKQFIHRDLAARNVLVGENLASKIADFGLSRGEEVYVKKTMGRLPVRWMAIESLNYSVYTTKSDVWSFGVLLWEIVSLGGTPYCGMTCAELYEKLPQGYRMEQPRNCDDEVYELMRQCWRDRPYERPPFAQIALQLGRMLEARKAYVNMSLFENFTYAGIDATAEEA

The target of assay [1] is recombinant C-terminal human SVEP1-Strep-tag II protein, purified (human) (UniProt Q4LDE5). Nature of the assay: pull-down; 3 µg purified StrepII tagged human SVEP1 C-terminus on 50 µl Strep-TactinXT 4Flow resin in binding buffer (50 mM Tris-HCl pH 7.5, 100 mM NaCl, 0.02% Triton X-100), added to lysate of TIE1-HA or TIE2-HA transfected 293T HEK cells, 2 hr; washed with Ripa buffer; anti-HA western blot; only the target purified.

Assay [2] addresses human SVEP1 (C-Terminus)-StrepII, co-transfected (human) (UniProt Q4LDE5). Put plainly: co-IP; 293T HEK cells co-transfected with human SVEP1 (C-terminus)-StrepII and TIE1-HA or TIE2-HA; Ripa lysates; SVEP1-StrepII captured on Strep-TactinXT 4Flow resin; five washes with Ripa buffer; anti-HA western blot. A general note: In western blotting, separated proteins are transferred to a membrane and probed.

With “human TIE1-HA (from UniProt P35590-1 21-1138) (receptor)”, the binding result in assay [1] and in assay [2] was “binds” each time.

(Values after paper PMC10129328.)
